Among the data in PMC12561918 are binding values, retold here.

Chains of the proteins cited; added tags and fusions are not shown. Lines headed by an entry give the natural chain unless they say otherwise; changes in a name come on top. Residues count along the entry.
UniProt I6Y4D2, residues 25-241: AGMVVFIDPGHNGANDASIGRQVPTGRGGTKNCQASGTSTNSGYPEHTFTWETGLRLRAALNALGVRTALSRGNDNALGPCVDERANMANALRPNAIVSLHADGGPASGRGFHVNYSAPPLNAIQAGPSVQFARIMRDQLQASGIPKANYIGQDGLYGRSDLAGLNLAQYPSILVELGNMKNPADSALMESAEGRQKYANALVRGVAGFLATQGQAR
UniProt P17844: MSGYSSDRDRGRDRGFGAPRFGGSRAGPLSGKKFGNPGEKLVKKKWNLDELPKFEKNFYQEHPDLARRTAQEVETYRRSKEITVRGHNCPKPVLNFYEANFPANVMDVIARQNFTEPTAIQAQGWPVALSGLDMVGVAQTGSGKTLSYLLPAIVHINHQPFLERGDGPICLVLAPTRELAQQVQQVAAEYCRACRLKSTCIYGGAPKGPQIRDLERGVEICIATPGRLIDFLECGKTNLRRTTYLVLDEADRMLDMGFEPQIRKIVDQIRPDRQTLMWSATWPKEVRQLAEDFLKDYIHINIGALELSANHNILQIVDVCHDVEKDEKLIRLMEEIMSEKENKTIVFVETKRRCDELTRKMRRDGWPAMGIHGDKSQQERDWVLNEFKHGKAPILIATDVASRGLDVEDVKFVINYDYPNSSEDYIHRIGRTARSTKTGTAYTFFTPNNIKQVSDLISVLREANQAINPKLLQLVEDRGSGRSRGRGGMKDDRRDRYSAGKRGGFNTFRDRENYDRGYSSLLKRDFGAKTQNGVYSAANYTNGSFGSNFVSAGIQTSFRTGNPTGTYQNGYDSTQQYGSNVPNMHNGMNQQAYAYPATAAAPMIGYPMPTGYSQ
UniProt P26599: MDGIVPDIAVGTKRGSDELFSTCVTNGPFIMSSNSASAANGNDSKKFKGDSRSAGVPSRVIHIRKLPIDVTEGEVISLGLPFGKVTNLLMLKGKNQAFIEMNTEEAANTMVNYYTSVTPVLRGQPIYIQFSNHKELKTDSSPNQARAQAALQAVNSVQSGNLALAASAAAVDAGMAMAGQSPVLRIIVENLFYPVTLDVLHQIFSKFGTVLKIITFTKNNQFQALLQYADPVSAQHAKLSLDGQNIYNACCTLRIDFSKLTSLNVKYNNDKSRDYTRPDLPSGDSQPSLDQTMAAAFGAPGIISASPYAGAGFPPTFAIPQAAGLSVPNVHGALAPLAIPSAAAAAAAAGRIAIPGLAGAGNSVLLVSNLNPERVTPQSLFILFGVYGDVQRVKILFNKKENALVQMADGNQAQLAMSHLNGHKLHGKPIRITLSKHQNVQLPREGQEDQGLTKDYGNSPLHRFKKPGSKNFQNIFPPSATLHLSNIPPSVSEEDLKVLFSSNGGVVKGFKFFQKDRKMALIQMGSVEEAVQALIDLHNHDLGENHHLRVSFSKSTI
UniProt Q12905: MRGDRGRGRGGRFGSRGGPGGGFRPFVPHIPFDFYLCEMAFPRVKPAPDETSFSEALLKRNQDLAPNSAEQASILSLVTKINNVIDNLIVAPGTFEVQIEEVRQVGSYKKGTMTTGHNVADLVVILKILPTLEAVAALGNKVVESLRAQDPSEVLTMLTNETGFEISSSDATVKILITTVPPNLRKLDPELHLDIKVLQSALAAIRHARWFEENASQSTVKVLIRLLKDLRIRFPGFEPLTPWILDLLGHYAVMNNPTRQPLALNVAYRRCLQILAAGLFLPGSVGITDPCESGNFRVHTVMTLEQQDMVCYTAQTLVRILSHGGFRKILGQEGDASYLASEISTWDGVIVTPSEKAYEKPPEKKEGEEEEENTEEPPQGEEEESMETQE
UniProt P19474: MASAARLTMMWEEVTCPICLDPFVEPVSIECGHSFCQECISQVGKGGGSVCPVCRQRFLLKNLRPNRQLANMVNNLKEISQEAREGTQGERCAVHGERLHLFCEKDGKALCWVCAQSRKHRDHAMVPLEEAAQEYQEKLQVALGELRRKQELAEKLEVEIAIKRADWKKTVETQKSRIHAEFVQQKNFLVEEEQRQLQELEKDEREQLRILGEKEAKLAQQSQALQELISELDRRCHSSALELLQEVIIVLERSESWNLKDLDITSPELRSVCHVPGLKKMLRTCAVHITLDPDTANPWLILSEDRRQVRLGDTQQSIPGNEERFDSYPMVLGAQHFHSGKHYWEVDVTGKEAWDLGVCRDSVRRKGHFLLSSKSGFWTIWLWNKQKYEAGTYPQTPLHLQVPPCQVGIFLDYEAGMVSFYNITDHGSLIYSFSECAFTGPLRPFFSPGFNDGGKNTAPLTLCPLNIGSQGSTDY
UniProt Q08554: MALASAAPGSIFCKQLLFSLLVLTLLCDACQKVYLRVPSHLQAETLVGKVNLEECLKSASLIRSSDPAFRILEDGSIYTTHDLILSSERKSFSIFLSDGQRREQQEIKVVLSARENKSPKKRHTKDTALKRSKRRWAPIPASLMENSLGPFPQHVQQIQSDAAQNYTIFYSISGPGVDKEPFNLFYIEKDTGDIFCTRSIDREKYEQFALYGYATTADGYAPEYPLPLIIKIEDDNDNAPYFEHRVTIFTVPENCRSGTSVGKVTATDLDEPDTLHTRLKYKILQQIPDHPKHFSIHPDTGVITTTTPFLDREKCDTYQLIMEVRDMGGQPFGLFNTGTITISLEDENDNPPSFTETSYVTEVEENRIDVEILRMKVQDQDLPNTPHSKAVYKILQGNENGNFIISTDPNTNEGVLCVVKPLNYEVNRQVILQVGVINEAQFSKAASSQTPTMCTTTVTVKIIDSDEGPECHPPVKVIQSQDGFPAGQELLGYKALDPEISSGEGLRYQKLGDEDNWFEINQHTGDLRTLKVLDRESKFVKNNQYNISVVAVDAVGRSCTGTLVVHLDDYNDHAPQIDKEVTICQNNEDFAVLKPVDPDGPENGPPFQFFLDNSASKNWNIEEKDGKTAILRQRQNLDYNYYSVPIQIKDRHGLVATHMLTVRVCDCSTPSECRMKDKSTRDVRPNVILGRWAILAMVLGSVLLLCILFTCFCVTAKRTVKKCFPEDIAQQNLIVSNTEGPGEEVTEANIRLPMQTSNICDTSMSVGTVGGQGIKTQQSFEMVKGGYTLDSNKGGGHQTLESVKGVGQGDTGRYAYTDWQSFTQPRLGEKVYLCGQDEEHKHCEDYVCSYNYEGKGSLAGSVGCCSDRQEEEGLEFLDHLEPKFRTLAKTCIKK
UniProt P15924: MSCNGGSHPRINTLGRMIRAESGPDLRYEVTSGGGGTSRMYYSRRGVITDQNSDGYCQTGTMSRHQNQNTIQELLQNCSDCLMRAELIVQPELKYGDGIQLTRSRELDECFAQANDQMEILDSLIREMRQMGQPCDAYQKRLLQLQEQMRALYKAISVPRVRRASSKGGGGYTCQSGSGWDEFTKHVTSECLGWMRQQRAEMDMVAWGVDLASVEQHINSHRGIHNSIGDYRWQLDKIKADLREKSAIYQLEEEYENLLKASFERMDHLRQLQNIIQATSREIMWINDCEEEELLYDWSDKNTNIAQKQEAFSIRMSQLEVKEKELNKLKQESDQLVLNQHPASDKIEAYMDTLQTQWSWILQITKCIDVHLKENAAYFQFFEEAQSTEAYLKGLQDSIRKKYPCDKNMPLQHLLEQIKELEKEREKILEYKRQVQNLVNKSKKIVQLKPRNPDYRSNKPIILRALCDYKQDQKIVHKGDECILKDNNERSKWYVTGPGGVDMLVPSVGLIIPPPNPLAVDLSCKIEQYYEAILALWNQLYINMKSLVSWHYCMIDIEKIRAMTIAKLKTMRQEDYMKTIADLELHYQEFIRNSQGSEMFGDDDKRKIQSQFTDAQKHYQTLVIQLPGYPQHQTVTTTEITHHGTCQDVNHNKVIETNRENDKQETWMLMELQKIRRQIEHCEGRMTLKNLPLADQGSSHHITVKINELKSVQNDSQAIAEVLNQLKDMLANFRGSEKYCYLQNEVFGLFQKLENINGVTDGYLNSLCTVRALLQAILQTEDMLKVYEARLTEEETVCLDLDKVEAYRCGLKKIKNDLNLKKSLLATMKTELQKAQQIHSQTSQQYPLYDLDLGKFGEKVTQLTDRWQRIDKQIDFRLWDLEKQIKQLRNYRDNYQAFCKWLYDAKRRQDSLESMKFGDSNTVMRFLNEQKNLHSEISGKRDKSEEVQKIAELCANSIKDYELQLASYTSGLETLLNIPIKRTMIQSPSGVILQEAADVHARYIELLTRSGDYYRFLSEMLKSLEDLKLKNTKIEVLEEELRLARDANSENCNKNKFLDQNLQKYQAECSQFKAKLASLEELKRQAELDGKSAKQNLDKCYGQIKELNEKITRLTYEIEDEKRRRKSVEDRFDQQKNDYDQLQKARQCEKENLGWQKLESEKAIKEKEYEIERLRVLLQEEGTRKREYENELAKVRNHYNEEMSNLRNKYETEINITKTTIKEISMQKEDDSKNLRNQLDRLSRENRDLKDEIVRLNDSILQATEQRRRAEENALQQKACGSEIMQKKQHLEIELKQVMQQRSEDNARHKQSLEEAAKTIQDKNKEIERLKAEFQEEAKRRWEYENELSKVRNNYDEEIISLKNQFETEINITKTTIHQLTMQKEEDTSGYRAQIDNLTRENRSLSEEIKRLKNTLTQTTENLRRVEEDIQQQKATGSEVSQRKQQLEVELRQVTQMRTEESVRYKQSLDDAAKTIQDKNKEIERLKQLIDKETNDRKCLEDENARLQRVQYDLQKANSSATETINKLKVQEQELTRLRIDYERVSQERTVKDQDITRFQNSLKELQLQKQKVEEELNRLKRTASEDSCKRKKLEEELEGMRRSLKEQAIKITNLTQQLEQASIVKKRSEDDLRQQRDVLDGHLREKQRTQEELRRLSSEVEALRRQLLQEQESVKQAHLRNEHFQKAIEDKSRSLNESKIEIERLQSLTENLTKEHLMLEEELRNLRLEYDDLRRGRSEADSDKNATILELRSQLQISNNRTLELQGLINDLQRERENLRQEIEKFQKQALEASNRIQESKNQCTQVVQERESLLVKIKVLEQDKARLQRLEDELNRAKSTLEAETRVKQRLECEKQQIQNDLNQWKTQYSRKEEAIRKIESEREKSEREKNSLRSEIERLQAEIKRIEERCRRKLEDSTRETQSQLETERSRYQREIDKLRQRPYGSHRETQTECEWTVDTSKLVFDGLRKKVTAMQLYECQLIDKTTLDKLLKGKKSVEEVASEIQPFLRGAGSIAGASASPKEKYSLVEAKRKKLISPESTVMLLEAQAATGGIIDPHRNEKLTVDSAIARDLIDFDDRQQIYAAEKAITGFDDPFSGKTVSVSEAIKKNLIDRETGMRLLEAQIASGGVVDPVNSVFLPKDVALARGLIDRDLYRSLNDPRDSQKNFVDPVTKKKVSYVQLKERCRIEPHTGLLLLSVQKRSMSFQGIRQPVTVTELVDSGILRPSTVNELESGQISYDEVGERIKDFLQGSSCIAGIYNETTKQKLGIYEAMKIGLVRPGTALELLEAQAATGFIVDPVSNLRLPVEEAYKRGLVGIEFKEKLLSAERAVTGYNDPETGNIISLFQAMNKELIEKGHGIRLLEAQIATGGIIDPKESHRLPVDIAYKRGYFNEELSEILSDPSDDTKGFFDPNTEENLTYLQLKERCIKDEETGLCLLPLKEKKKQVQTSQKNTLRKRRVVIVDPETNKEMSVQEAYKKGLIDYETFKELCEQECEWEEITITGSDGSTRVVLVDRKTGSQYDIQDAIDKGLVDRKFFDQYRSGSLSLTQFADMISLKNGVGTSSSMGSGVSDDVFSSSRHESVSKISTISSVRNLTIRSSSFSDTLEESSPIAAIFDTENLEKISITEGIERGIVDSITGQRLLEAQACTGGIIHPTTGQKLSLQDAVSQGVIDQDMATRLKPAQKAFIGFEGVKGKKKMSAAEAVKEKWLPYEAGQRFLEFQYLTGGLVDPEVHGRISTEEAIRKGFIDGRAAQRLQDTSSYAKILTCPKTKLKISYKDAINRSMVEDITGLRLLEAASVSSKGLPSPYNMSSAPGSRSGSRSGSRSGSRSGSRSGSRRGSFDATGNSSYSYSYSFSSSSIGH

Results are given in words; binding and its absence hold for the method and conditions named. In cells and extracts the contact can be indirect. A yes stands for co-enrichment or nearness to the bait. Other partners may have been found.

This assay has as its target Flag-Rv3717 (Mycobacterium tuberculosis Rv3717) expressed in HPAEpiC cells (Mycobacterium tuberculosis) (UniProt I6Y4D2). The assay is described as follows: affinity purification with mass spectrometry.

With “Probable ATP-dependent RNA helicase DDX5 (from UniProt P17844 1-614)”, the binding entry was “binds”.

As for “Polypyrimidine tract-binding protein 1 (from UniProt P26599 1-557)”, the binding result is “binds”.

In the case of “Interleukin enhancer-binding factor 2 (endogenous) (from UniProt Q12905 1-390)”, the binding entry is recorded as “binds”.

As to “E3 ubiquitin ligase TRIM21 (endogenous) (from UniProt P19474 1-475)”, the binding entry is reported as “binds”.

In the case of Desmocollin-1 (from UniProt Q08554), the binding entry is “binds”.

Take “Desmoplakin (from UniProt P15924 1-2871)”: the binding result is on record as “binds”.

B1: Zyxin (protein, UniProt Q15942 1-572)
chain: MAAPRPSPAISVSVSAPAFYAPQKKFGPVVAPKPKVNPFRPGDSEPPPAPGAQRAQMGRVGEIPPPPPEDFPLPPPPLAGDGDDAEGALGGAFPPPPPPIEESFPPAPLEEEIFPSPPPPPEEEGGPEAPIPPPPQPREKVSSIDLEIDSLSSLLDDMTKNDPFKARVSSGYVPPPVATPFSSKSSTKPAAGGTAPLPPWKSPSSSQPLPQVPAPAQSQTQFHVQPQPQPKPQVQLHVQSQTQPVSLANTQPRGPPASSPAPAPKFSPVTPKFTPVASKFSPGAPGGSGSQPNQKLGHPEALSAGTGSPQPPSFTYAQQREKPRVQEKQHPVPPPAQNQNQVRSPGAPGPLTLKEVEELEQLTQQLMQDMEHPQRQNVAVNELCGRCHQPLARAQPAVRALGQLFHIACFTCHQCAQQLQGQQFYSLEGAPYCEGCYTDTLEKCNTCGEPITDRMLRATGKAYHPHCFTCVVCARPLEGTSFIVDQANRPHCVPDYHKQYAPRCSVCSEPIMPEPGRDETVRVVALDKNFHMKCYKCEDCGKPLSIEADDNGCFPLDGHVLCRKCHTARAQT
Take B1: the binding result was “binds”.

B2: Heterogeneous nuclear ribonucleoprotein D-like (protein, UniProt O14979 1-420)
chain: MEVPPRLSHVPPPLFPSAPATLASRSLSHWRPRPPRQLAPLLPSLAPSSARQGARRAQRHVTAQQPSRLAGGAAIKGGRRRRPDLFRRHFKSSSIQRSAAAAAATRTARQHPPADSSVTMEDMNEYSNIEEFAEGSKINASKNQQDDGKMFIGGLSWDTSKKDLTEYLSRFGEVVDCTIKTDPVTGRSRGFGFVLFKDAASVDKVLELKEHKLDGKLIDPKRAKALKGKEPPKKVFVGGLSPDTSEEQIKEYFGAFGEIENIELPMDTKTNERRGFCFITYTDEEPVKKLLESRYHQIGSGKCEIKVAQPKEVYRQQQQQQKGGRGAAAGGRGGTRGRGRGQGQNWNQGFNNYYDQGYGNYNSAYGGDQNYSGYGGYDYTGYNYGNYGYGQGYADYSGQQSTYGKASRGGGNHQNNYQPY
Take B2: the binding entry is listed as “binds”.

B3: Junction plakoglobin (protein, UniProt P14923 1-745)
chain: MEVMNLMEQPIKVTEWQQTYTYDSGIHSGANTCVPSVSSKGIMEEDEACGRQYTLKKTTTYTQGVPPSQGDLEYQMSTTARAKRVREAMCPGVSGEDSSLLLATQVEGQATNLQRLAEPSQLLKSAIVHLINYQDDAELATRALPELTKLLNDEDPVVVTKAAMIVNQLSKKEASRRALMGSPQLVAAVVRTMQNTSDLDTARCTTSILHNLSHHREGLLAIFKSGGIPALVRMLSSPVESVLFYAITTLHNLLLYQEGAKMAVRLADGLQKMVPLLNKNNPKFLAITTDCLQLLAYGNQESKLIILANGGPQALVQIMRNYSYEKLLWTTSRVLKVLSVCPSNKPAIVEAGGMQALGKHLTSNSPRLVQNCLWTLRNLSDVATKQEGLESVLKILVNQLSVDDVNVLTCATGTLSNLTCNNSKNKTLVTQNSGVEALIHAILRAGDKDDITEPAVCALRHLTSRHPEAEMAQNSVRLNYGIPAIVKLLNQPNQWPLVKATIGLIRNLALCPANHAPLQEAAVIPRLVQLLVKAHQDAQRHVAAGTQQPYTDGVRMEEIVEGCTGALHILARDPMNRMEIFRLNTIPLFVQLLYSSVENIQRVAAGVLCELAQDKEAADAIDAEGASAPLMELLHSRNEGTATYAAAVLFRISEDKNPDYRKRVSVELTNSLFKHDPAAWEAAQSMIPINEPYGDDMDATYRPMYSSDVPLDPLEMHMDMDGDYPIDTYSDGLRPPYPTADHMLA
Consider B3, for which the binding result was “binds”.

B4: Serrate RNA effector molecule homolog (protein, UniProt Q9BXP5 1-876)
chain: MGDSDDEYDRRRRDKFRRERSDYDRSRERDERRRGDDWNDREWDRGRERRSRGEYRDYDRNRRERFSPPRHELSPPQKRMRRDWDEHSSDPYHSGYEMPYAGGGGGPTYGPPQPWGHPDVHIMQHHVLPIQARLGSIAEIDLGVPPPVMKTFKEFLLSLDDSVDETEAVKRYNDYKLDFRRQQMQDFFLAHKDEEWFRSKYHPDEVGKRRQEARGALQNRLRVFLSLMETGWFDNLLLDIDKADAIVKMLDAAVIKMEGGTENDLRILEQEEEEEQAGKPGEPSKKEEGRAGAGLGDGERKTNDKDEKKEDGKQAENDSSNDDKTKKSEGDGDKEEKKEDSEKEAKKSSKKRNRKHSGDDSFDEGSVSESESESESGQAEEEKEEAEEALKEKEKPKEEEWEKPKDAAGLECKPRPLHKTCSLFMRNIAPNISRAEIISLCKRYPGFMRVALSEPQPERRFFRRGWVTFDRSVNIKEICWNLQNIRLRECELSPGVNRDLTRRVRNINGITQHKQIVRNDIKLAAKLIHTLDDRTQLWASEPGTPPLPTSLPSQNPILKNITDYLIEEVSAEEEELLGSSGGAPPEEPPKEGNPAEINVERDEKLIKVLDKLLLYLRIVHSLDYYNTCEYPNEDEMPNRCGIIHVRGPMPPNRISHGEVLEWQKTFEEKLTPLLSVRESLSEEEAQKMGRKDPEQEVEKFVTSNTQELGKDKWLCPLSGKKFKGPEFVRKHIFNKHAEKIEEVKKEVAFFNNFLTDAKRPALPEIKPAQPPGPAQILPPGLTPGLPYPHQTPQGLMPYGQPRPPILGYGAGAVRPAVPTGGPPYPHAPYGAGRGNYDAFRGQGGYPGKPRNRMVRGDPRAIVEYRDLDAPDDVDFF
In the case of B4, the binding entry is on record as “binds”.
